PubChem BioAssay AID1671190 (National Center for Advancing Translational Sciences (NCATS), 2021)
Out of some 580,000 compounds screened, about 6,100 (1.1%) were called active. This list was built around the results that the source calls inconclusive (neither active nor inactive); the mix of calls is not that of the screen. Calls follow the shape of the dose curve; as a rule, active = well fitted inhibition curve with a large enough effect; inconclusive = small, poorly fitted or top-dose-only effect, or another doubt; inactive = no such curve, though single readings can be large or run the other way. Potencies of inconclusive entries are doubtful fits and often do not repeat.

The chains behind the UniProt entries cited, without tags or fusion partners. Where a name states a change or a piece, a line headed by the entry shows the natural chain unless it says otherwise.
UniProt P18054: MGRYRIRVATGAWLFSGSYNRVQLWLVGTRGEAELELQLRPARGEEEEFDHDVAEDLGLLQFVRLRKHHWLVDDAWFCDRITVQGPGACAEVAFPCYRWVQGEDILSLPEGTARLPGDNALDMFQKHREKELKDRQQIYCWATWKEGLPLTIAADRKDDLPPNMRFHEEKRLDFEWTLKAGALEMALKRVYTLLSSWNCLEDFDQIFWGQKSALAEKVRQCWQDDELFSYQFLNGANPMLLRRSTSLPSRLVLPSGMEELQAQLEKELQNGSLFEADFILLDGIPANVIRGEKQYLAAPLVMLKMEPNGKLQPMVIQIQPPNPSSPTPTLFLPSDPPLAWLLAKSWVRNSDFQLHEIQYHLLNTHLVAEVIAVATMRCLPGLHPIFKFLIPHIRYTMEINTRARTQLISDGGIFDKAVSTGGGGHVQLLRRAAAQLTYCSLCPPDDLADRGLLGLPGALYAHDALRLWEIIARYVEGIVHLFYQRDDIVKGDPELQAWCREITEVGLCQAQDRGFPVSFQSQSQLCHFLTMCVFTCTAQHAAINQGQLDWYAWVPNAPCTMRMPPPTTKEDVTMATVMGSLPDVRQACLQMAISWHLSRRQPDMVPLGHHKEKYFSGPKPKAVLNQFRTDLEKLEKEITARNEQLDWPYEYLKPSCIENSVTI

Molecular target: Polyunsaturated fatty acid lipoxygenase ALOX12 (Homo sapiens) (UniProt P18054)
Assay: Primary qHTS assay for inhibitors of human arachidonate 12S-lipoxygenase (ALOX12): Round 2
Conditions: purified 12hLO, xylenol orange hydroperoxide absorbance; activity change, negative = inhibition: at 108 µM (top of the series) unless noted
How it was run: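 Purified human 12hLO at 150 nM in 25 mM Hepes, 0.01% Triton X-100, pH 7.0, preincubated 15 min at room temperature with compound. Reaction started with 40 uM arachidonic acid, 30 min at room temperature. Hydroperoxide measured by Fe-xylenol orange, 573/405 nm absorbance ratio.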
% is scaled to controls: 0 for no effect and ±100 for the full control effect; potency is read from the fitted curve at half-maximal effect.

| Compound | Potency | activity change, negative = inhibition |
| --- | --- | --- |
| CCOC(=O)COc1ccc(C2NC(C(=O)O)CS2)cc1 (stereo not given) | active: 31.6 µM |  |
| O=C(NC(=S)Nc1cccnc1)c1cccc(Br)c1 |  | inactive: -13.2% |
| CCCOc1ccc(CSC(=N)N)cc1C(=O)OC |  | inactive: 12.1% |
| O=C(c1ccc2c(c1)OCO2)N1CCN(c2ccc(Cl)cc2)CC1 | inconclusive: 7.08 µM [inhibitor, full curve, poor fit] |  |
| COc1ccccc1C1C(C(=O)c2sc(C)nc2C)=C(O)C(=O)N1CCN1CCOCC1 (stereo not given) | inconclusive: 35.5 µM [inhibitor, single point] |  |
| Cc1ccc(C2C3=C(CCCC3=O)Nc3nc(SCCC(C)C)[nH]c(=O)c32)o1 (stereo not given) | active: 7.94 µM |  |
| COc1ccnc(N2C[C@@H]3OCC(=O)N(CC4CC4)[C@@H]3C2)n1 | inconclusive: 28.2 µM [inhibitor, full curve] |  |
| CCN1C(=O)[C@H]2[C@@H](c3ccc(-c4cccc(Cl)c4)cc3)N[C@@](CC(C)C)(C(=O)OC)[C@H]2C1=O | inconclusive: 2.51 µM [inhibitor, full curve, poor fit] |  |
| O=C(C[n+]1cccc2ccccc21)c1ccc(NC(=O)c2ccccc2)cc1 |  | inactive: -7.73% |
| CCc1ccc(-c2cc(C(F)(F)F)on2)cc1S(=O)(=O)Nc1cc(OC)ccc1OC |  | inactive: -23.6% |
| Cc1cc(=O)n(CCO)c(O)c1C#N | inconclusive: 50.1 µM [inhibitor, partial curve, poor fit] |  |
| O=C(c1ccc(Cl)cc1)N1CCC2(CC1)C(=O)NCN2c1ccccc1 | inconclusive: 89.1 µM [inhibitor, partial curve, poor fit] |  |
| Cc1ccc(NC(=O)C2(c3ccccc3)CCCC2)cc1 |  | inactive: 14.9% |
| CC12CCC(=O)N1C(C(=O)Nc1ccc(F)c(F)c1F)CS2 (stereo not given) | inconclusive: 89.1 µM [inhibitor, partial curve, poor fit] |  |
| COc1ccc2c(c1C)CCC/C2=N\OC(=O)c1ccccc1F | inconclusive: 100 µM [inhibitor, single point] |  |
| COc1cc(NC(=O)COc2cc(C)cc3oc(=O)c(C)c(C)c23)cc(OC)c1OC | inconclusive: 35.5 µM [inhibitor, partial curve, poor fit] |  |
| COc1ccc(C(=O)N2CCC(N3CCN(c4ccccc4)CC3)CC2)cc1 | inconclusive: 3.55 µM [inhibitor, full curve, poor fit] |  |
| CCCCC(NC(C)=O)c1nc2ccccc2n1CCC (stereo not given) | inconclusive: 28.2 µM [inhibitor, single point] |  |
| CCSCCC(NC1=CC(=O)CC(C)(C)C1)C(=O)O (stereo not given) | inconclusive: 2.82 µM [inhibitor, full curve, poor fit] |  |
| CCC(C)N1CCN(C(=O)c2cc(OC)cc(OC)c2)CC1 (stereo not given) | inconclusive: 0.355 µM [inhibitor, full curve, poor fit] |  |
| O=C(NNS(=O)(=O)c1ccc(F)cc1)c1ccc2c(c1)OCO2 | inconclusive: 100 µM [inhibitor, partial curve, poor fit] |  |
| C[C@H](NC(=O)N1CCn2c1nc1ccccc12)C(=O)NC1CCCCC1 |  | inactive: 8.31% |

Full records, quoted from the list.
Cc1ccc(C2C3=C(CCCC3=O)Nc3nc(SCCC(C)C)[nH]c(=O)c32)o1 (stereo not given) is listed with Potency: active: 7.94 µM
COc1cc(NC(=O)COc2cc(C)cc3oc(=O)c(C)c(C)c23)cc(OC)c1OC is listed with Potency: inconclusive: 35.5 µM [inhibitor, partial curve, poor fit]

Later entries:

| Compound | Potency | activity change, negative = inhibition |
| --- | --- | --- |
| COCCOCc1nc(C2CCN(C(=O)NC3CCCCC3)CC2)no1 |  | inactive: 68.2% |
| COc1cc2c(Nc3ccc(Cl)c(Cl)c3F)ncnc2cc1OCC1C[C@@H]2CN(C)C[C@H]2C1 |  | inactive: -21.2% [at 57.4 µM] |
| COc1ccc(-c2oc(NC(=O)CCl)c(C#N)c2-c2ccc(OC)cc2)cc1 | inconclusive: 35.5 µM [inhibitor, partial curve, poor fit] |  |
| O=C(NCc1ccc(F)cc1)c1cnccn1 |  | inactive: 2.89% |
| CC(=O)C1=C(O)C(=O)N(c2ccc(O)cc2)C1c1ccccc1Cl (stereo not given) | inconclusive: 35.5 µM [inhibitor, partial curve, poor fit] |  |
| CCOC(=O)c1[nH]c2ccccc2c1NC(=S)Nc1ccccc1 | inconclusive: 44.7 µM [inhibitor, partial curve, poor fit] |  |
| CN(C(=O)c1ccc(NC(=O)Cc2ccc(NC(=O)C3CCCN(C(=O)C4CC4)C3)cc2)cc1)C1CC1 (stereo not given) |  | inactive: -1.03% |
| Cc1ncccc1OC1(C(=O)N2CCCC2c2nc(C(C)C)no2)CCNCC1 (stereo not given) | inconclusive: 39.8 µM [inhibitor, single point] |  |
| CCOc1ccc(CNCc2c(C(=O)O)c(C)n(Cc3ccccc3Cl)c2C)cc1 | inconclusive: 35.5 µM [inhibitor, partial curve, poor fit] |  |
| Cc1c(C(c2cccc([N+](=O)[O-])c2O)c2c(C)n(C)n(-c3ccccc3)c2=O)c(=O)n(-c2ccccc2)n1C |  | inactive: -18.7% |
| COc1ccc(C(=O)COc2ccc3c(c2)OCO3)cc1OC | active: 44.7 µM |  |
| O=C(Nc1c(NC2CCCCC2)c2ccccc2oc1=O)c1cccc(Cl)c1 |  | inactive: -10.9% |
| O=C(Cn1nnc(-c2cccs2)n1)NCc1ccco1 |  | inactive: 0% |
| C=C(C)C(=O)Nc1cccc(C2=NOC3(C2)C[C@H](C(N)=O)N(C(=O)COc2ccc(Cl)cc2)C3)c1 (stereo not given in full) |  | inactive: -9.53% |
| COc1ccc(OC)c(C2C(C(=O)c3cccs3)=C(O)C(=O)N2CCN2CCOCC2)c1 (stereo not given) | inconclusive: 10 µM [inhibitor, full curve, poor fit] |  |
| C[C@H]1CN([C@@H](C)CO)C(=O)CCCn2nncc2CO[C@@H]1CN(C)S(=O)(=O)c1ccc2ccccc2c1 | inconclusive: 35.5 µM [inhibitor, single point] |  |
| CN(c1ccccc1)c1nccc(=O)[nH]1 | inconclusive: 35.5 µM [inhibitor, partial curve, poor fit] |  |
| COc1cccc(Nc2cc(CN3CCC(C)(NC(C)=O)CC3)cc(OC)c2)c1 | active: 39.8 µM |  |
| Cc1cccc(C2=NN(c3ccccc3)[C@@H](C(=O)N3CCOC3=O)[C@@H]2c2ccccc2)c1 | inconclusive: 28.2 µM [inhibitor, partial curve] |  |
| CC(C)CC1C(=O)N(Cc2cn(Cc3ccco3)nn2)CCS(=O)(=O)N1Cc1ccc(-c2ccc(F)cc2)cc1 (stereo not given) | inconclusive: 56.2 µM [inhibitor, partial curve, poor fit] |  |
| COc1ccc2nc3sc(C(=O)NCCCN4CCc5ccccc5C4)cc3cc2c1 | inconclusive: 89.1 µM [inhibitor, partial curve, poor fit] |  |
| Cc1ccc(S(=O)(=O)c2nc(-c3ccco3)oc2SCC(C)C)cc1 | inconclusive: 56.2 µM [inhibitor, partial curve, poor fit] |  |

Retrieved by structure from the list above, 4 records:

| Compound | Potency | activity change, negative = inhibition |
| --- | --- | --- |
| COCCOCc1nc(C2CCN(C(=O)NC3CCCCC3)CC2)no1 |  | inactive: 68.2% |
| CN(C(=O)c1ccc(NC(=O)Cc2ccc(NC(=O)C3CCCN(C(=O)C4CC4)C3)cc2)cc1)C1CC1 (stereo not given) |  | inactive: -1.03% |
| Cc1cccc(C2=NN(c3ccccc3)[C@@H](C(=O)N3CCOC3=O)[C@@H]2c2ccccc2)c1 | inconclusive: 28.2 µM [inhibitor, partial curve] |  |
| Cc1ccc(S(=O)(=O)c2nc(-c3ccco3)oc2SCC(C)C)cc1 | inconclusive: 56.2 µM [inhibitor, partial curve, poor fit] |  |

Following part

| Compound | Potency | activity change, negative = inhibition |
| --- | --- | --- |
| COc1ccc2[nH]cc(C3C(NC(=O)c4ccccc4)=C(C)Nc4ncnn43)c2c1 (stereo not given) |  | inactive: 13.8% |
| Cc1c(C(=O)NCCn2c(C)cc3ccccc32)cccc1[N+](=O)[O-] | inconclusive: 56.2 µM [inhibitor, partial curve, poor fit] |  |
| O=C(O)CCCCCNC(=O)Nc1ccc2c(c1)OCCO2 | inconclusive: 89.1 µM [inhibitor, single point] |  |
| Cc1ccc(NS(=O)(=O)c2ccc(NC(=O)CSc3ccc(Cl)cc3)cc2)c(C)c1 | active: 31.6 µM |  |
| Cc1cc(C)cc(NC(=S)NCCc2ccc(S(N)(=O)=O)cc2)c1 | inconclusive: 50.1 µM [inhibitor, partial curve, poor fit] |  |
| COc1cccc(/C(O)=C2/C(=O)C(=O)N(CCN3CCOCC3)C2c2cccnc2)c1 (stereo not given) | inconclusive: 35.5 µM [inhibitor, partial curve, poor fit] |  |
| CNS(=O)(=O)c1cc(NS(=O)(=O)c2c(F)cc(F)cc2Br)ccc1C |  | inactive: 19.9% |
| N#Cc1nc(-c2ccco2)oc1N1CCN(CC(=O)N2CCNC2=O)CC1 | inconclusive: 89.1 µM [inhibitor, single point] |  |
| CCCN(Cc1nnc(-c2ccccc2Cl)o1)C(=O)c1cccc(S(=O)(=O)N(C)C)c1 | inconclusive: 70.8 µM [inhibitor, partial curve, poor fit] |  |
| N#CC(=C(O)c1ccc(Cl)cc1Cl)c1nc2cc(Cl)ccc2c(=O)[nH]1 | active: 21.7 µM |  |
| Cn1c(C(=O)c2ccccc2[N+](=O)[O-])nc2ccccc21 | inconclusive: 100 µM [inhibitor, partial curve, poor fit] |  |
| O=C(CNC(=O)c1ccc(Br)cc1)NCC(=O)OCC(=O)c1ccc([N+](=O)[O-])cc1 | inconclusive: 100 µM [inhibitor, partial curve, poor fit] |  |
| COC(=O)[C@@]1(C)[C@H]2C(=O)N(C)C(=O)[C@H]2[C@H]2CN=C(SCc3ccc(Cl)cc3)N21 | inconclusive: 8.91 µM [inhibitor, full curve, poor fit] |  |
| CCC(=O)N1CC2(C1)CN(C(=O)c1ccccn1)[C@H](CO)c1c2c2ccc(OC)cc2n1C | inconclusive: 50.1 µM [inhibitor, partial curve, poor fit] |  |
| O=C(NCC1CC1)c1ccccc1Nc1ccccc1 | inconclusive: 158 µM [inhibitor, partial curve, poor fit] |  |
| NC(=O)c1ccc(NC(=O)Cc2csc(-c3ccccc3)n2)cc1 | inconclusive: 50.1 µM [inhibitor, partial curve, poor fit] |  |
| N#Cc1nc(-c2ccc(S(=O)(=O)N3CCCCCC3)cc2)oc1NC1CCCCC1 | inconclusive: 126 µM [inhibitor, partial curve, poor fit] |  |
| CCOC(=O)c1c(C)n(CC(=O)O)c2ccc(OC)cc12 | inconclusive: 44.7 µM [inhibitor, partial curve, poor fit] |  |
| O=C(Nc1cccc(F)c1)c1ccc2ccccc2n1 | inconclusive: 7.94 µM [inhibitor, full curve] |  |
| CCSC1=C(C#N)C(c2ccc(C)s2)CC(=O)N1 (stereo not given) |  | inactive: 13.6% |
| COCCCNC(=O)Cc1c(C)c2c(cc(C)c3c(C)c(C)oc32)oc1=O |  | inactive: 7.85% |
